The structures given here were assigned with low confidence; some may be wrong.

By UniProt entry, the sequences of proteins in these tests, tags left out.
UniProt P04049, whole entry: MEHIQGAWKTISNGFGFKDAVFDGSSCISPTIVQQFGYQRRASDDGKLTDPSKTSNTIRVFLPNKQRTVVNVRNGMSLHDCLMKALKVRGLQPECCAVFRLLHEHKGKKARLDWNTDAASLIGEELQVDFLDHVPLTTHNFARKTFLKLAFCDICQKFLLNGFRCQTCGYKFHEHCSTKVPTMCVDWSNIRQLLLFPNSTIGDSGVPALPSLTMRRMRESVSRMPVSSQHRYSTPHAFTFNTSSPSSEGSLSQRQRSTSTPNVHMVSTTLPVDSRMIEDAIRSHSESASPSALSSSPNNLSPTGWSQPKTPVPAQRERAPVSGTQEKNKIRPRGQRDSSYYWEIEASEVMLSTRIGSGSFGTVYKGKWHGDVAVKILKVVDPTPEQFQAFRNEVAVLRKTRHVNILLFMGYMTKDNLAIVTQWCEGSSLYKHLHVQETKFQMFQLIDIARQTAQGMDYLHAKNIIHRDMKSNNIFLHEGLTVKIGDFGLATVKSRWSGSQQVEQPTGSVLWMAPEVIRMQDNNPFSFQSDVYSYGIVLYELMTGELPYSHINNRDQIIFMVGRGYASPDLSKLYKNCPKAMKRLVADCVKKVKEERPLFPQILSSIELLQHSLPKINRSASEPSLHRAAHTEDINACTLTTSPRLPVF

This is an account of results in patent publication US20100099710A1, “SRC FAMILY KINASE INHIBITORS” (priority 2007, published 2010).

For this test, the target named is Raf-1 (Homo sapiens, UniProt P04049). The test can be described thus: Kinase screen, recombinant kinase, [γ-33P-ATP] filter assay. As to the method: Compound 6 was tested in vitro at the concentration of 1 μM with 204 kinases from a screening panel including 70 tyrosine kinases (both receptor tyrosine kinases and protein tyrosine kinases) and 134 serine/threonine kinases. Each recombinant kinase (5-10 mU) was incubated with [γ-33P-ATP], protein substrate, compound, and the reaction initiated by the addition of MgATP. After incubation for 40 minutes, the reaction was stopped by the addition of 5 μL of a 3% phosphoric acid solution. 10 μL of the reaction was then spotted onto a P30 filtermat and washed three times for 5 minutes in 75 mM phosphoric acid and once in methanol prior to drying and scintillation counting. The final concentration of ATP in the assay was 10 μM.

As a reminder, the IC50 is the concentration that gives 50% inhibition. Take `CNC(=O)Nc1cc(CNc2ccccc2C(=O)NOCC2CCCC2)ccn1`: the IC50 amounted to 0.014 µM. Also, the “inhibition of Raf-1” value (concentration of 1 μM) is 91%.
